Source: paper PMC6805999, “Molecular Mechanism of SR Protein Kinase 1 Inhibition by the Herpes Virus Protein ICP27” (mBio, 2019)
Results are given in words; binding and its absence hold for the method and conditions named.

Chains of the proteins cited; added tags and fusions are not shown. Residues count along the entry.
UniProt Q07955: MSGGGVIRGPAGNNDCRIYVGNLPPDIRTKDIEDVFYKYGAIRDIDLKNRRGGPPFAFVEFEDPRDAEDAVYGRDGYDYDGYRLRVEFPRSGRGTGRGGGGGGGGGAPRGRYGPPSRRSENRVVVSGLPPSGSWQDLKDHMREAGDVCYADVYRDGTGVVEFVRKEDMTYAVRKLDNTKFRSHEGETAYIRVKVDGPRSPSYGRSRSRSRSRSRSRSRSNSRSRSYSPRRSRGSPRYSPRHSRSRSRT
UniProt P10238, residues 103-155: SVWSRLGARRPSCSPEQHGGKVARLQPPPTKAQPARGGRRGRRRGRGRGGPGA

Biological target: full-length SRSF1 (UniProt Q07955)
Assay: NMR titration; IDIS-HSQC NMR of a 1:1 mixture of 50 μM 13C,15N-labelled ICP27 103-155 and 50 μM 15N-labelled SRSF1, then unlabelled GB1-SRPK1 added to 25 μM and to 50 μM; both purified

With “recombinant isotope-labelled ICP27 103-155 (expressed as GST-ICP27 103-155) (from UniProt P10238 103-155) (domain or fragment)” the binding was “no binding (tested: 50 μM each)”.
